{"sequences": {"note": "The chains behind the UniProt entries cited, without tags or fusion partners. Where a name states a change or a piece, a line headed by the entry shows the natural chain unless it says otherwise.", "UniProt Q9UNE7": "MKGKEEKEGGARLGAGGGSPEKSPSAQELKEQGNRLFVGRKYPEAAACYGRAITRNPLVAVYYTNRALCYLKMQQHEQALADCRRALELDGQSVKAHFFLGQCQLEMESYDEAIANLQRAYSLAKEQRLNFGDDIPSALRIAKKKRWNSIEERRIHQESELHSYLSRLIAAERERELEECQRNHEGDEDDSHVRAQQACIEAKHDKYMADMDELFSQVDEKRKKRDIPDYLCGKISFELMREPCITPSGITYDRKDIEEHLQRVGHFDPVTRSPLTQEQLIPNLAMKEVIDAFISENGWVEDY", "UniProt P09874": "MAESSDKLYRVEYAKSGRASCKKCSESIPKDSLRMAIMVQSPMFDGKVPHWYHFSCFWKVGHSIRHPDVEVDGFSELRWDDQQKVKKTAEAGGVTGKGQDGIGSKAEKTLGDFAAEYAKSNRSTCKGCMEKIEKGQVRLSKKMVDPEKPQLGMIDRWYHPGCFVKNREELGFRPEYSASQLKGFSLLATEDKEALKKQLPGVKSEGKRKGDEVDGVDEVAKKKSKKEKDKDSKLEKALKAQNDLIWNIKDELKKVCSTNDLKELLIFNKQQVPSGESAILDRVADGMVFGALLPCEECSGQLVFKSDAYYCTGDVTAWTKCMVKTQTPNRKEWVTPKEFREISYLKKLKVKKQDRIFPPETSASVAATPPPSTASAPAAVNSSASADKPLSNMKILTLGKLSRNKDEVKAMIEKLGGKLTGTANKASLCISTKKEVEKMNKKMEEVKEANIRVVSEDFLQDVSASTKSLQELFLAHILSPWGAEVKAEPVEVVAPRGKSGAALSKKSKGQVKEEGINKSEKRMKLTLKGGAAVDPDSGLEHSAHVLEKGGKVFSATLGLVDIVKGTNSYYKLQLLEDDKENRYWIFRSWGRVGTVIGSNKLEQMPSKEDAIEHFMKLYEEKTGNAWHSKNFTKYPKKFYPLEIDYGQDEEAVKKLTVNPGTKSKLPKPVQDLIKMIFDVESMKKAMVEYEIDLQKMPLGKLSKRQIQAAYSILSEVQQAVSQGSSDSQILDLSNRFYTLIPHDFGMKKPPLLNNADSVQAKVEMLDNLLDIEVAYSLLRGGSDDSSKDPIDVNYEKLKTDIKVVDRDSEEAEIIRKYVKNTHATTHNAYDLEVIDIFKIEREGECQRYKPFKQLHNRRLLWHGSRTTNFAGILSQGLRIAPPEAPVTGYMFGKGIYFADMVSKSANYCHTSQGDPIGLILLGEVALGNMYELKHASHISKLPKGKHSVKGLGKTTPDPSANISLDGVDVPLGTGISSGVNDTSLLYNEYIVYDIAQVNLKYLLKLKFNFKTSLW"}, "source": "paper PMC5134000", "target": "Flag-CHIPΔTPR (TPR-deleted mutant) (not stated (plasmid from Korea Human Gene Bank)) (UniProt Q9UNE7)", "assay": "co-IP; HEK 293 cells, transfected tagged and/or endogenous proteins; high-salt lysis buffer (50 mM Tris/HCl pH 7.5, 1% Nonidet P-40, 300 mM NaCl, 150 mM KCl, 5 mM EDTA) diluted with lysis buffer without NaCl and KCl; antibodies and protein A-Sepharose overnight at 4 °C; in some panels cells treated with MG132 (5 uM, 10 h), siHSP70, siPARP1 or doxorubicin (2 ug/ml)", "note": "No constants are given. Whether binding was seen depends on the method and setting. Binding seen in cells or lysates may run through a third protein.", "data": [{"substance": "endogenous PARP1 (poly(ADP-ribose) polymerase 1) (from UniProt P09874 1-1014) (enzyme)", "values": [{"measurement": "binding", "result": "no binding"}]}]}
